Some of the results follow.
Experiments:
Assay in all cases: log2 fold change, soluble protein after heating vs DMSO (PISA); higher = thermal stabilisation; K562 cells, 10 uM, 30 min; active = over 0.2 and 3.5 SD of the protein, either way, in both replicates (recomputed)
[1] = compound: C1=CC=C(C=C1)[C@H](COC2=CC3=C(C=C2)NC(=O)N3)NC(=O)C4=CC=CN(C4=O)CC5=CC(=C(C=C5)F)F
Summary of the method: (§1)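 Thermal stability values are relative to control samples and come from duplicates. They are expressed as log2 fold changes. For measurement, K562 cells (2×10^6 cells/mL) received 10 μM compound for 30 min, and aliquots were heated for 3 min over 48°C-58°C, pooled, and extracted at 4°C in PBS with 0.5% NP-40. Soluble protein, the supernatant after 21,000xg for 90 min, was quantified by TMTpro 16plex LC-MS/MS with equalised channel sums.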

Sequences of proteins named here, by UniProt entry; tags and fusion partners are left off. A change or cut given only in a name is not applied to a line headed by its entry.
UniProt Q9BUA3: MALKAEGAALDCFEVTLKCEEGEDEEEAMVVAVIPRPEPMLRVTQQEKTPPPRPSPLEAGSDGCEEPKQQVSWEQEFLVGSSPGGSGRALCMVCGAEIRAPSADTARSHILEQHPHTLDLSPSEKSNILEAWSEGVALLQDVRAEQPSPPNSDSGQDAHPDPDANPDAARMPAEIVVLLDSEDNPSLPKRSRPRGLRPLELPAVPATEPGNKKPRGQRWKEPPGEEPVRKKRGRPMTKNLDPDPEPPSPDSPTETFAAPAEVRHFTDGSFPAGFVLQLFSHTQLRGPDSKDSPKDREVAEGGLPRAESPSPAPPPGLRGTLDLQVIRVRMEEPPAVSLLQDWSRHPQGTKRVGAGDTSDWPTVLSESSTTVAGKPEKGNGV
UniProt Q8WVM7: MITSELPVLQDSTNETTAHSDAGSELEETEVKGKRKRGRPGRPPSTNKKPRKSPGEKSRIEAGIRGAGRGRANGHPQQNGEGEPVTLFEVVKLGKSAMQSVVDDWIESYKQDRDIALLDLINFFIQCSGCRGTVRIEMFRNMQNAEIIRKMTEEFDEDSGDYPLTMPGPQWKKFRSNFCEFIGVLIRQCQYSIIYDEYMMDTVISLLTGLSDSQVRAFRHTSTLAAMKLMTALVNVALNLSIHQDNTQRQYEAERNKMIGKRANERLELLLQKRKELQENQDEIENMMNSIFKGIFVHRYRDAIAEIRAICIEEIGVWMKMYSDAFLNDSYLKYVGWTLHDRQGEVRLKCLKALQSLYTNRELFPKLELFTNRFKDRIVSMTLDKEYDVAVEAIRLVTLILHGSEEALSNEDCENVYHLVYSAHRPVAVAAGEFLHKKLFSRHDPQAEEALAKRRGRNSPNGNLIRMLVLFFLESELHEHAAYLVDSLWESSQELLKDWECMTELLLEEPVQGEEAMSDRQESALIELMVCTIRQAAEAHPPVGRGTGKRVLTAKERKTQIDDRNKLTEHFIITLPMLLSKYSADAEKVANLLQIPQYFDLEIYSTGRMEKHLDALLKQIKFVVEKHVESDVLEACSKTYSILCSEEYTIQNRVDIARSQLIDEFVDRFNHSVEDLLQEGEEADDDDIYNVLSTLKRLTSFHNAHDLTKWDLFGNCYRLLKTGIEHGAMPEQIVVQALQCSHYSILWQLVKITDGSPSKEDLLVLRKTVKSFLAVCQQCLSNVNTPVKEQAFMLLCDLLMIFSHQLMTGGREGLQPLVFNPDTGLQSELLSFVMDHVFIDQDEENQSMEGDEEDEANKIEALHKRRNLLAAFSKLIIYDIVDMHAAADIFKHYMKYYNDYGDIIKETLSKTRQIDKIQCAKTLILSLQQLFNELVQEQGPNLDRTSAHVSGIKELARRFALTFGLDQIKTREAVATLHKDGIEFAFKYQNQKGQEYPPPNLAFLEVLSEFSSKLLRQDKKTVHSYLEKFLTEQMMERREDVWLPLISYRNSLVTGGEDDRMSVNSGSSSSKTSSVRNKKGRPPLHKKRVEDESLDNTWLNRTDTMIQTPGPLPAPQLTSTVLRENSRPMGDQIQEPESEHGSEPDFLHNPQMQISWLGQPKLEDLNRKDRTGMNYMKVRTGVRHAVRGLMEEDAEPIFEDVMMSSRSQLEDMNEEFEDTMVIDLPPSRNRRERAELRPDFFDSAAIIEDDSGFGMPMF
UniProt Q9Y5M8: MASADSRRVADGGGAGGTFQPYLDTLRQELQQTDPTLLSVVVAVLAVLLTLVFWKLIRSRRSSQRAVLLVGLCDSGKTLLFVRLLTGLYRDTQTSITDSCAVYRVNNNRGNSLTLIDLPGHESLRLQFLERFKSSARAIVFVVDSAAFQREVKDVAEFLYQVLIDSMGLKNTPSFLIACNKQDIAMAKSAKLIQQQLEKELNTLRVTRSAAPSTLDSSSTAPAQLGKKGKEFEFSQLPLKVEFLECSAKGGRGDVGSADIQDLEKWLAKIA
UniProt Q8WXA9: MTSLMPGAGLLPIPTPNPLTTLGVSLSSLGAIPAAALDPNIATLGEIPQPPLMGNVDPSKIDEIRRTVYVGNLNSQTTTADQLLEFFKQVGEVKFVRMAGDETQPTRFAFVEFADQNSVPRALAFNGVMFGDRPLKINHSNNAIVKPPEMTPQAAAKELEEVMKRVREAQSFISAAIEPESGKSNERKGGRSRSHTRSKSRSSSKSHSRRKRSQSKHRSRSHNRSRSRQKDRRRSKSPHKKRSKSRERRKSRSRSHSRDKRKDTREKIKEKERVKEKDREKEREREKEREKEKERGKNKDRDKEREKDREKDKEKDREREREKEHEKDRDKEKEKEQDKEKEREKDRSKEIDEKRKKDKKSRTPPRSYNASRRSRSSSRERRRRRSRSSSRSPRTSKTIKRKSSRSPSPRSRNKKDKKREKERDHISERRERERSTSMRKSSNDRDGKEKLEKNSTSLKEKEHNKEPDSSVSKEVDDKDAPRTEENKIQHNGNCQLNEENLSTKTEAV
UniProt Q8N3U4: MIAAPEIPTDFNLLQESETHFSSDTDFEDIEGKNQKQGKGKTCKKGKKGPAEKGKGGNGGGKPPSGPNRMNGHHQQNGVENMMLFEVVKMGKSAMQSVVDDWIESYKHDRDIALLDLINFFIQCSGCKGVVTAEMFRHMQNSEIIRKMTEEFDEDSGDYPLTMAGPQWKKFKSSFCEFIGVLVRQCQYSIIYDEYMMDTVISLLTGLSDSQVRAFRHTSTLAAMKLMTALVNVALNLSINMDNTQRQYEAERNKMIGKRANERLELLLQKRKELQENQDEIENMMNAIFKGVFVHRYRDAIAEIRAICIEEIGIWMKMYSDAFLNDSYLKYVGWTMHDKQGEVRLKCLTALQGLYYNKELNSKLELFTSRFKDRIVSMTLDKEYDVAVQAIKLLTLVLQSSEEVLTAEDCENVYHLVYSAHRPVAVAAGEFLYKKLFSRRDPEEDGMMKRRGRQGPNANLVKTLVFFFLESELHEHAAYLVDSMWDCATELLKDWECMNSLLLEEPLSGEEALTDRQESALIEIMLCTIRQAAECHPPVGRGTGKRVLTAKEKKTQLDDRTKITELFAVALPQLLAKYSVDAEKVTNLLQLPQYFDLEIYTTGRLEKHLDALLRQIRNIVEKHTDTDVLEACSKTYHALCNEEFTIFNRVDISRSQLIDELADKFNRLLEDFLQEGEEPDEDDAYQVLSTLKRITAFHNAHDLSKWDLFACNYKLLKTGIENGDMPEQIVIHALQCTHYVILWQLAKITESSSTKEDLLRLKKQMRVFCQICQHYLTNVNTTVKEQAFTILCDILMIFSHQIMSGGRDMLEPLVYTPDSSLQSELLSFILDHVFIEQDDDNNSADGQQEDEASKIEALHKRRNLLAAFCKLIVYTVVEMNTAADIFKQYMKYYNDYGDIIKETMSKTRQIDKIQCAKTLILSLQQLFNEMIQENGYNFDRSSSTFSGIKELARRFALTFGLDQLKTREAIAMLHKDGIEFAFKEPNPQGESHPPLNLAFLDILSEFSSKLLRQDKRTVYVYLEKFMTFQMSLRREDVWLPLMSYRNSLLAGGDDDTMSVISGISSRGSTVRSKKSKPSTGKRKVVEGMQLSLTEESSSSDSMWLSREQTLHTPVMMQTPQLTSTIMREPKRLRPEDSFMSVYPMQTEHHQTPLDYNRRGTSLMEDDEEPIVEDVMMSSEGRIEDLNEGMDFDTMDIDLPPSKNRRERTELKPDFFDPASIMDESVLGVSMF
UniProt Q08170: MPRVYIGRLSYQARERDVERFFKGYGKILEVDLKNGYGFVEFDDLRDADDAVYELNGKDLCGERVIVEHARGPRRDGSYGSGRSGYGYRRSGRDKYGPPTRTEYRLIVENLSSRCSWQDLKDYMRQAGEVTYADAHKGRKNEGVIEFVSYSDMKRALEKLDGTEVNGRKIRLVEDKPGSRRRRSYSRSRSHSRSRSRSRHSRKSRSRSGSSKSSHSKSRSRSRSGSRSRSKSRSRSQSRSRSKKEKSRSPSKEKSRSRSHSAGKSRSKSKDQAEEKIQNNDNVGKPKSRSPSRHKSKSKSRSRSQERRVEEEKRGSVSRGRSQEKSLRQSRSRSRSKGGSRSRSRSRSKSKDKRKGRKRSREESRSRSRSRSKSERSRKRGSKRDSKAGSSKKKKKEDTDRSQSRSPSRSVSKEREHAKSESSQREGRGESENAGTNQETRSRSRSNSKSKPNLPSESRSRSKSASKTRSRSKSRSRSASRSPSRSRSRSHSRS
UniProt P09132: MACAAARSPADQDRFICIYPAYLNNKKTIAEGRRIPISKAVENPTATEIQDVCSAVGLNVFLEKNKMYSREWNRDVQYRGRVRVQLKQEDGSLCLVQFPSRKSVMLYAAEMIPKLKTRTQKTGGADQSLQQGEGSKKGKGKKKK
UniProt P11277, whole entry, looked up: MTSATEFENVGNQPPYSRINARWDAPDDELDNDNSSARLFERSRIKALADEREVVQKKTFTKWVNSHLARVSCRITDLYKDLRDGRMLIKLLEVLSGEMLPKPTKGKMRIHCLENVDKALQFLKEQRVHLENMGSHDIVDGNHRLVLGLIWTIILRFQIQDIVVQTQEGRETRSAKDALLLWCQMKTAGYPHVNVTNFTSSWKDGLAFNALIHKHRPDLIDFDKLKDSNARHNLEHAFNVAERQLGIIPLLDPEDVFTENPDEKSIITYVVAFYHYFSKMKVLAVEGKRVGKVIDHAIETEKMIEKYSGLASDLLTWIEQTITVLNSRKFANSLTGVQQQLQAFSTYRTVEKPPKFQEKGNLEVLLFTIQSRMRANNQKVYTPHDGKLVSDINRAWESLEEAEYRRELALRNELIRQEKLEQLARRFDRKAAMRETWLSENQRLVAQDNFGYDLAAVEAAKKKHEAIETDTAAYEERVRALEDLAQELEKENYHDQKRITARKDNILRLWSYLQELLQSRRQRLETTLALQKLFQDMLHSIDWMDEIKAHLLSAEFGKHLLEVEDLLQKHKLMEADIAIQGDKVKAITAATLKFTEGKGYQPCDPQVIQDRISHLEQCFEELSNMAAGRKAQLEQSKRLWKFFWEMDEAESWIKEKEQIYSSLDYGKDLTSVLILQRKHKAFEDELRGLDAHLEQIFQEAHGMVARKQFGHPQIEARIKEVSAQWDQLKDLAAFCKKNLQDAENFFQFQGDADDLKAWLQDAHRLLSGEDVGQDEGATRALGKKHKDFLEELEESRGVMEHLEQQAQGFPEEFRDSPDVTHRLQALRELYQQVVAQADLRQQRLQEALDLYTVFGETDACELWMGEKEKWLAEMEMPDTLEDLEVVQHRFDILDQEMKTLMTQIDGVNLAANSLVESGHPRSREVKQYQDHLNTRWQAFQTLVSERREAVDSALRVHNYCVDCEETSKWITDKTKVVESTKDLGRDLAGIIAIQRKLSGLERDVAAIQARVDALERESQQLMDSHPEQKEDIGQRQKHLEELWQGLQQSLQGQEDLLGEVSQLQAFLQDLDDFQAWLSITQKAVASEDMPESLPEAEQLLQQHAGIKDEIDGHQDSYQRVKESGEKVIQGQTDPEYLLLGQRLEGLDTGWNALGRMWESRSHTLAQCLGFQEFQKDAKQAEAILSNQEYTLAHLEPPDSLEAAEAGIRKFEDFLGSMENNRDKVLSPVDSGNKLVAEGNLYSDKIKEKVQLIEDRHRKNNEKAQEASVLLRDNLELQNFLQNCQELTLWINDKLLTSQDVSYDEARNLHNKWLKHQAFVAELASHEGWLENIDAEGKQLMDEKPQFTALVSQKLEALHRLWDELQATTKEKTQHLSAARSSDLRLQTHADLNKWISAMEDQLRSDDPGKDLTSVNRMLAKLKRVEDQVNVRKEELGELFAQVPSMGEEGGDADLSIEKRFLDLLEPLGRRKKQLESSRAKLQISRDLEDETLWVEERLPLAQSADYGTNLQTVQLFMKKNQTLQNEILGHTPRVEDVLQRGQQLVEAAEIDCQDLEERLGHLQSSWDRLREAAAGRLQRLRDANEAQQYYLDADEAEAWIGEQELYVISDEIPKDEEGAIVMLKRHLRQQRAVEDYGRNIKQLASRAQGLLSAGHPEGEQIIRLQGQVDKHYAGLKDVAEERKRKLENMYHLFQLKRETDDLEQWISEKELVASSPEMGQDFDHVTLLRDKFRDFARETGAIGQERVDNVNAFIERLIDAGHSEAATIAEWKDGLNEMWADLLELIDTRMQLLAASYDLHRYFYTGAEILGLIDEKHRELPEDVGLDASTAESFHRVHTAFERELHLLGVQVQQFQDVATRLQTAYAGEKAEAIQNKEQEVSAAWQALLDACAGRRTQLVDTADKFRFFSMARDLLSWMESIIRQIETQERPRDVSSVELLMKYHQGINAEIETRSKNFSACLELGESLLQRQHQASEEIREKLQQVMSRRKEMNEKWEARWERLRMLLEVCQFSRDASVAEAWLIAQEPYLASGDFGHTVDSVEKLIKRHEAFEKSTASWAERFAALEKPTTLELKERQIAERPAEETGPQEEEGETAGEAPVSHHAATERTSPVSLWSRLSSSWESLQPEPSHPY
UniProt Q9BYN0: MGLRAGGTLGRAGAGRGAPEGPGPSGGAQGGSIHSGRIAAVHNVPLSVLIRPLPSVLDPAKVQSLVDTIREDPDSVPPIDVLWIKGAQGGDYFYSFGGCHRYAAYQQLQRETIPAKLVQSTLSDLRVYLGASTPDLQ

[2] = compound: CC1=C(SC2=C1C(=N[C@H](C3=NN=C(N32)C)CC(=O)N)C4=CC=C(C=C4)Cl)C
Summary of the method: as §1

[3] = compound: CC1=C2C(=CC=C1)N=C(N(C2=O)C3=CC=CC=C3C)CN4C=NC5=C(N=CN=C54)N
Summary of the method: as §1

[4] = compound: Cc1sc2c(c1C)C(c1ccc(Cl)cc1)=N[C@@H](CC(=O)OC(C)(C)C)c1nnc(C)n1-2
Summary of the method: as §1

[5] = compound: c1ccc([C@@H]2C[C@H]2NC2CCNCC2)cc1
Summary of the method: as §1

Measured: log2 fold change

STAM (UniProt Q92783)
inactive: [1] -0.049 | [2] 0.017 | [3] 0.041 | [4] -0.029 | [5] 0.009

SPINDOC (UniProt Q9BUA3)
inactive: [1] 0.03 | [2] 0.02 | [3] -0.066 | [4] 0.145 | [5] 0.041

STAG1 (UniProt Q8WVM7)
inactive: [1] 0.014 | [2] 0.067 | [3] 0.071 | [4] -0.029 | [5] -0.011

SRPRB (UniProt Q9Y5M8)
inactive: [1] -0.005 | [2] 0.014 | [3] 0.034 | [4] -0.017 | [5] -0.016

SRGAP2 (UniProt O75044)
inactive: [1] 0.019 | [2] 0.048 | [3] 0.021 | [4] -0.02 | [5] -0.145

SREK1 isoform 2 (UniProt Q8WXA9)
inactive: [1] 0.05 | [2] -0.06 | [3] -0.039 | [4] -0.037 | [5] 0.026

STAU1 (UniProt O95793)
inactive: [1] 0.11 | [2] -0.32 | [3] -0.4 | [4] 0.323 | [5] 0

SRSF2 (UniProt Q01130)
inactive: [1] 0.008 | [2] -0.047 | [3] -0.052 | [4] 0.061 | [5] 0.143

SRSF6 (UniProt Q13247)
inactive: [1] -0.071 | [2] -0.453 | [3] -0.109 | [4] 0.217 | [5] 0.015

STAG2 (UniProt Q8N3U4)
inactive: [1] 0.012 | [2] 0.007 | [3] 0.03 | [4] -0.03 | [5] 0.039

STK11 (UniProt Q15831)
inactive: [1] 0.007 | [2] 0.039 | [3] 0.051 | [4] 0.017 | [5] 0.07

SRSF4 (UniProt Q08170)
inactive: [1] 0.09 | [2] -0.166 | [3] -0.124 | [4] 0.073 | [5] 0.096

SRP9 (UniProt P49458)
inactive: [1] 0.036 | [2] -0.268 | [3] -0.242 | [4] 0.154 | [5] 0.053

SPIRE1 (UniProt Q08AE8)
inactive: [1] 0.079 | [2] 0.002 | [3] 0.196 | [4] -0.01 | [5] 0.075

SPTLC2 (UniProt O15270)
inactive: [1] -0.019 | [2] 0.051 | [3] 0.065 | [4] -0.051 | [5] -0.019

SPC25 (UniProt Q9HBM1)
inactive: [1] 0.009 | [2] 0.054 | [3] 0.073 | [4] -0.014 | [5] -0.043

ST6GALNAC1 (UniProt Q9NSC7)
inactive: [1] 0.049 | [2] -0.051 | [3] -0.039 | [4] 0.039 | [5] -0.027

Fetched one by one from the entries so far, 2 records:
SPTLC2 (UniProt O15270)
inactive: [1] -0.019 | [2] 0.051 | [3] 0.065 | [4] -0.051 | [5] -0.019

ST6GALNAC1 (UniProt Q9NSC7)
inactive: [1] 0.049 | [2] -0.051 | [3] -0.039 | [4] 0.039 | [5] -0.027

The listing continues:

SPG11 (UniProt Q96JI7)
inactive: [1] 0.095 | [2] 0.05 | [3] 0.444 | [4] 0.24 | [5] 0.083

SRP19 (UniProt P09132)
inactive: [1] -0.042 | [2] -0.033 | [3] 0.043 | [4] -0.031 | [5] 0.132

SSR1 (UniProt P43307)
inactive: [1] 0.043 | [2] 0.009 | [3] 0.046 | [4] -0.003 | [5] 0.001

SPECC1L (UniProt Q69YQ0)
inactive: [1] 0.021 | [2] 0.055 | [3] -0.027 | [4] -0.017 | [5] 0.024

SPTB isoform 2 (UniProt P11277)
inactive: [1] -0.015 | [2] 0.386 | [3] -0.019 | [4] 0.135 | [5] -0.055

SPRY4 (UniProt Q9C004)
inactive: [1] -0.047 | [2] -0.002 | [3] 0.015 | [4] -0.008 | [5] 0.017

SPP2 (UniProt Q13103)
inactive: [1] 0.065 | [2] 0 | [3] 0.119 | [4] -0.038 | [5] -0.002

SRXN1 (UniProt Q9BYN0)
inactive: [1] -0.02 | [2] 0.086 | [3] 0.117 | [4] -0.05 | [5] 0.086
